# Source: PubChem BioAssay AID1458 (National Center for Advancing Translational Sciences (NCATS), 2008)
# Out of some 210,000 compounds screened, about 5,900 (2.8%) were called active. About 5% were inconclusive and are not listed. The call rests on the fitted dose curve; in most records, active means well fitted activation curve with a large enough effect; inconclusive means small, poorly fitted or top-dose-only effect; inactive means no such curve, though single readings can be large or run the other way. The list shows a part of the results, in another mix than the full data. Where no call is shown, the source filed none.
# Test: qHTS Assay for Enhancers of SMN2 Splice Variant Expression; further: nearly all actives have a fitted effect of over 55% in size; on activity change, positive = activation: % of control where 0% means no effect
# Conditions: HEK293 SMN2-luciferase splicing reporter, luminescence, 30-36 h; activity change, positive = activation: at 46.1 µM (top of the series) unless noted
# Excerpt: NIH Chemical Genomics Center [NCGC] NIH Molecular Libraries Probe Production centers Network [MLPCN] MLPCN Grant: R03 MH084179-01 Assay Submitter (PI): Elliot Androphy NCGC Assay Overview: Spinal muscular atrophy (SMA) is caused by insufficient levels of the survival motor neuron protein SMN. The SMN locus on chromosome 5q13 contains two inverted copies of SMN called SMN1 and SMN2 which are 99% identical at the amino acid level. SMN1 is a fully functional protein and SMN2 skips exon 7 90% of the time. Skipping of exon 7 produces non-functional protein product. 10% of the SMN2 protein includes exon 7 and is fully functional. In the SMA disease state, mutations in the SMN1 locus are the cause of the disease state. Because only 10% of SMN2 is of the fully functional form, it is not sufficient to overcome the deficiency produced by the loss of the SMN1 product. A therapy that either increase the amount of SMN2 product made or to increase the inclusion of exon 7 has been proposed for the treatment of SMA. We have designed an assay to identify small molecules that can increase the amount of functional SMN2 product by appending a luciferase reporter gene after the native SMN2 gene, such that inclusion of exon 7 in the expressed product places the luciferase sequence in frame, thus generating functional luciferase enzyme.
# NCGC Assay Protocol Summary: This screen utilizes a luciferase reporter gene assay, combining the promoter and splicing based cassettes in tandem with the major portion of the native SMN2 cDNA, and then transfected into HEK293 cells. Compounds that increase luciferase signal presumably enhance expression of the functional SMN2 splice variant. Passaging media contained DMEM w/ glutamax (+phenol red) 10% FCS, 1x pen/strep, 200 ug/ml hygro, 1x sodium pyruvate. Assay media contained DMEM w/ glutamax (-phenol red) 10% FCS, 1x pen strep, 1x pyruvate Sequence, Parameter, Value, Description (1) Cells, […], 2000 cells/well, 1536 TC treated White solid bottom plate (2) Time, 10-12 hours, 37C 5% CO2 (3) Compound, 23 nl, MLSMR Library (4) Control Compound, 23 nL, Sodium butyrate st 4.5mM (final) conc (5) Time, 30-36 hours, 37C 5% CO2 (6) Reagent, 3 ul, One Glo (TM) from Promega (7) Time, 5-15 minutes, Room temp (8) Detector, Viewlux: luminescent read, 60 second integration, high speed 2x binning Keywords: Spinal muscular atrophy, SMA, SMN2, high throughput screening, MLSMR, MLPCN, NIH Roadmap, qHTS and NCGC
# Potency means the concentration at half of the fitted maximal effect.
Compound,"activity change, positive = activation",Potency
Cc1ccc2c(c1)C(=O)c1ccccc1CS2=O (configuration not stated),inactive: -44.8%,
COC(=O)c1cccc(S(=O)(=O)N2CCC(n3nnc4cc(F)ccc43)CC2)c1,inactive: -38.3%,
O=C(COC(=O)c1ccccc1)Nc1ccccc1Br,34.1%,
COc1ccc(-n2nnc(C(=O)Nc3ccccc3F)c2N)cc1,,active: 7.08 µM
CC(C)c1ccccc1S(=O)(=O)c1cc(N)c2ncccc2c1[N+](=O)[O-],inactive: -37.5%,
O=C(CSc1c2c(nc3cc(Cl)ccc13)CCCC2)N1CCN(c2ccccc2F)CC1,inactive: -32.1%,
CC(=O)Nc1ccc(S(=O)(=O)N(Cc2ccco2)CC2CCCO2)cc1 (configuration not stated),32%,
CCOC(=O)N1CC=C2C(C#N)=C(N)C(C#N)(C#N)[C@H](c3ccccc3OCC)[C@H]2C1,47.6%,
CCOc1cc(-c2c(C#N)c(N)nc3c2CCc2ccccc2-3)ccc1O,,active: 12.6 µM
COc1cc(C(=O)N/N=c2/sc3ccccc3n2C)cc(OC)c1OC,inactive: -67% [at 1.84 µM],
COc1cccc(C2CC(c3ccc(Cl)cc3)Nc3nc(N)nn32)c1 (configuration not stated),19.9%,
Cc1ccc2[nH]c3c(NCCN4CCOCC4)ncnc3c2c1,inactive: -31.6%,
Nc1ccc2nc(-c3ccc(O)cc3)sc2c1,,active: 1.41 µM
Cc1sc(NC(=O)c2ccc(Cl)s2)c(C(N)=O)c1C,,active: 10 µM
CC1(c2ccccc2)NC(=O)N(N)C1=O (configuration not stated),45.3%,
COc1cc2cc(C(c3nnnn3C(C)(C)C)N3CCc4ccccc4C3)c(=O)[nH]c2cc1OC (configuration not stated),54.5%,
O=C(COc1cccc(NC(=O)c2cccc([N+](=O)[O-])c2)c1)c1ccc(F)cc1,inactive: -69.7%,
COc1cc(-c2nnc(SCC(=O)N(Cc3ccccc3)C(C)(C)C)o2)cc(OC)c1OC,inactive: -31.2%,
Cc1ccc(N/C=C/C(=O)c2ccc(C)cc2)cc1,28.3%,
COc1ccc(NS(=O)(=O)c2ccc3nc(COc4ccc(C#N)cc4)[nH]c3c2)cc1,inactive: -12.3%,
CC(Sc1nnc2ccccn12)C(=O)Nc1ccc(Cl)cn1 (configuration not stated),31.8%,
COc1ccc(-c2nn(-c3ccccc3)cc2/C=C/C(=O)NCCCn2ccnc2)cc1OC,47.4%,
Cc1ccc2nc3ccc(N4CCN(C)CC4)nn3c(=O)c2c1,104%,

Compound,"activity change, positive = activation",Potency
CCn1cc(C(=O)NCc2ccco2)c(=O)c2cc(F)c(N3CCN(C(=O)c4ccco4)CC3)cc21,37.4%,
CSc1nnc(-c2cccc(C)c2)n1N,38.3%,
O=C(CCCNS(=O)(=O)c1cccs1)N1CCN(c2cccc(Cl)c2)CC1,inactive: -60.7%,
OC1CN=C2CCCc3c2n(c2ccc(Cl)cc32)C1 (configuration not stated),46.2%,
COc1ccc(Nc2nc(C)nc3c2nnn3Cc2ccccc2)cc1OC,inactive: -78.2%,
O=S(=O)(Nc1cccc2cccnc12)c1ccc(S(=O)(=O)N2CCCC2)cc1,-42.4%,
O=C(CNC(=O)c1ccc(-c2ccccc2)cc1)OCc1ccc(Br)cc1,,active: 3.55 µM
Cc1[nH]c(=O)[nH]c(=O)c1S(=O)(=O)N1CCCC(C(=O)NCCC2=CCCCC2)C1 (configuration not stated),-33.8%,
CC(=O)NCCOc1cccc2ccccc12,40.8%,
CCOC(=O)c1cc(C(=O)Nc2cccc(C)c2)nn1C,,active: 12.6 µM
O=C(c1ccco1)N1CCN(C2=NS(=O)(=O)c3ccccc32)CC1,34.2%,
COc1ccc(S(=O)(=O)c2nnn(-c3ccc(C)c(Cl)c3)c2C)cc1,inactive: -50.8%,
Cc1ccc(NC(=O)CCS(=O)(=O)c2cc(Br)cc3c2N(C(=O)C2CC2)CC3)cc1,20.5%,
CCOC(=O)c1c(Cc2ccccc2)c[nH]c1C,inactive: -35%,
COc1ccc2nc(SCc3ccccc3)nc(C)c2c1,,active: 11.2 µM
Cc1ccc(-c2nc3ccccc3[nH]2)cc1NC(=O)c1sc2ccccc2c1Cl,inactive: -58.7%,
Cc1ccc(-c2c3c(=O)n(C)c(=O)n(C)c3cn2N2CCOCC2)cc1,32.7%,
COc1ccc2cnn(CCOc3ccccc3)c(=O)c2c1OC,,active: 11.2 µM
COc1ccc(/C=C/C=C2\N=C(SC)SC2=O)cc1,39.1%,
COC(=O)Cc1c(C)c2ccc(OCC(C)=O)c(C)c2oc1=O,,active: 12.6 µM
Cc1cccc(Nc2nc(-c3ccc4c(c3)OCCO4)cs2)c1,,active: 11.2 µM
O=C(O)C1CCCCC1C(=O)NCCc1ccc(Cl)cc1 (configuration not stated),25%,
CC1(C)CC2CC(C)(CN2S(=O)(=O)c2ccc(C(=O)Nc3ccc(S(=O)(=O)N4CCOCC4)cc3)cc2)C1 (configuration not stated),-68.2%,

Compound,"activity change, positive = activation",Potency
O=S(=O)(c1ccc(Oc2ccc(Br)cc2)cc1)N1CCOCC1,-70.2%,
CCC(=O)n1nc(-c2ccc(OC)cc2)nc1NCc1cccs1,32.3%,
Cc1cc(C)n(CCc2nc(-c3ccc(F)cc3)cs2)n1,-70.5%,
CCN1CCN(c2cc(C(C)(C)C)nc3c(-c4ccccc4)c(C)nn23)CC1,-41.5%,
CCOc1ccc(C)cc1S(=O)(=O)NC1CCCCC1,49.8%,
COc1ccc(CCNC(=O)CC(c2ccccc2)c2cccc(C)c2O)cc1OC (configuration not stated),-50.7%,
O=C(Cc1c(F)cccc1Cl)Nc1cccnc1,76.9%,
COc1ccccc1-n1c(CNc2c(C)cccc2C)nnc1SCC(=O)N1CCOCC1,22.3%,
Cc1cc(-c2n[nH]c(=S)o2)c(C)n1-c1ccccc1,,active: 7.08 µM
Cc1cc(=O)oc(C)c1C(=O)NCc1c(F)cc(F)cc1F,162%,
O=C(NC1=NCCS1)c1ccc(OCC2CCCO2)cc1 (configuration not stated),,active: 10 µM
CN(C)c1ccc(/C=C(\C#N)c2ccccn2)cc1,-54%,
CCc1c(O)nc(N2CCN(Cc3ccccc3)CC2)[nH]c1=O,20.8%,
CC(C)c1cc(C(N)=O)c(NC(=O)c2cccc(COc3ccc(Br)cc3)c2)s1,460%,
CCOC(=O)c1c(NC(=O)COc2ncnc3ccccc23)sc(C)c1CC,-40.3%,
Cc1ccc(N=Cc2nc(-c3ccc(C)cc3)oc2O)cc1,-16.5%,
COc1cc(C(=S)N2CCCC2)ccc1OS(=O)(=O)c1ccc(NC(C)=O)cc1,inactive: -68.4%,
COc1cc(C2CC(=O)N(CC(=O)Nc3ccccc3F)c3ccccc3S2)cc(OC)c1OC (configuration not stated),inactive: -34.2%,
O=C(Nc1cc(Sc2ccccn2)cc([N+](=O)[O-])c1)c1cccc(Cl)c1,-92.2%,
O=C(c1cc2ccccc2oc1=O)N(Cc1ccco1)CC1CCCO1 (configuration not stated),58.3%,
CN(C)S(=O)(=O)N1CCN(CC(O)COc2ccc(C(=O)c3ccccc3)cc2)CC1 (configuration not stated),-65.5%,
